Results published in patent US20240307334A1 (Lieber Institute, Inc., priority 2023, published 2024).
Structures can show the parent of a compound that is named as a salt.

Legend:
[1] = test system: Tcf4+/tr mouse model of PTHS; assay: In vivo immunohistochemical (IHC) quantification of OPCs and OLs after two-week intraperitoneal dosing; conditions: Tcf4+/tr mice dosed with clemastine up to p42, samples collected at p90
From the text: The Tcf4^+/tr mouse model of PTHS is heterozygous for an allele encoding deletion of the DNA-binding domain of TCF4 (B6; 129-TCF4tmlZhu/J, stock number 013598, Jackson Laboratory). This mouse colony was backcrossed for at least six generations, maintained by The Lieber Institute for Brain Developments Animal Facility on a 12-h light/dark cycle and fed ad libitum. Tcf4^+/tr mouse samples were matched with samples from Tcf4^+/+ littermates, and sex was randomly selected in each genotype and age group. […]
Cells were rinsed 1× with PBS and then fixed with 4% paraformaldehyde (PFA) for 5 minutes, following fixation cells were rinsed 3× with PBS. […] Imaging and quantification were performed blind to genotypes and conditions/treatments.
Next, we assessed the effectiveness of clemastine in vivo by dosing Tcf4^+/tr mice and Tcf4^+/+ littermates intraperitoneally with either clemastine (10 mg/kg) or vehicle for two weeks followed by immunohistochemical (IHC) quantification (FIG. 2A). […]
Next, we assessed the effectiveness of Sob-AM2 in vivo by dosing Tcf4^+/tr mice and Tcf4^+/+ littermates intraperitoneally with either Sob-AM2 (1 mg/kg) or vehicle for two weeks followed by immunohistochemical (IHC) quantification (FIG. 7D).

[2] = test system: Tcf4+/tr mouse model of PTHS; conditions: corpus callosum slices, two-week clemastine treatment, compared to vehicle-treated Tcf4+/tr littermates
Procedure: 5% DMA (dimethylacetamide, Sigma 271012) was added up to the total volume needed. […] The mixture was shaken vigorously (vortex) and was ready for administration for intraperitoneal (1P) dosing at 10 mL/kg. The final pH was approximately 5. […] Initial dosing was performed at P28 up until P42 when animals were then used for subsequent experiments.

In the case of `CN1CCC[C@@H]1CCO[C@](C)(c1ccccc1)c1ccc(Cl)cc1` [clemastine, clemastine fumarate], the “mature OLs at p90 after halting administration at p42” value [1] is reported as “mature OLs are maintained after halting dosage” and the “N1/N2 ratio (CAPs down myelinated vs unmyelinated axons)” value [2] is reported as “significantly increasing the N1/N2 ratio”.
